Experimental data: PubChem BioAssay AID1347076 (National Center for Advancing Translational Sciences (NCATS), 2019)
Screen size: about 400,000 compounds; about 13,000 (3.2%) were called active. Inconclusive results, whose numbers are uncertain, are shown with a selection of clear calls. Calls come from the whole dose curve; as a rule, active = well fitted cell-killing curve with a large enough effect; inconclusive = small, poorly fitted or top-dose-only effect, or effect the other way; inactive = flat fitted curve, though single readings scatter. Potencies beside an inconclusive call are fits to weak or partial responses and may not hold up.

Assay: qHTS assay for MDR1-selective chemotherapeutics: Primary screen using the drug-selected MDR subline cells KB-V1; note: nearly all actives have a fitted effect of over 60% in size
Settings: KB-V1 MDR cells viability, CellTiter-Glo, 72 h; activity change, negative = cytotoxicity: at 46.1 µM (top of the series)
Summary of the method: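 Following 72 h at 37 degrees C with compound, KB-V1 cell viability was read by CellTiter-Glo luminescence, medium being phenol-red-free DMEM plus 10% FBS; concentration-response parameters came from normalized, curve-fitted qHTS data.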
% is set by controls: 0 for no effect and ±100 for the full control effect; potency is the fitted concentration of half-maximal effect.

| Compound | Potency | activity change, negative = cytotoxicity |
| --- | --- | --- |
| CC(C)N(Cc1nccn1C)C(=O)CCc1nnc(CCCc2ccccc2)o1 | inactive | – |
| CC(=O)N/N=C/c1cc(C(C)(C)C)cc(/C=N/NC(C)=O)c1O | inconclusive: 13 µM [cytotoxic, partial curve] | – |
| CC(=O)c1cn(CC(=O)Nc2cccc(C)c2C)c2ccccc12 | inconclusive: 11.6 µM [cytotoxic, partial curve] | – |
| COCc1nnc(NC(=O)c2cc(OC)c(OC)c(OC)c2)s1 | inactive | – |
| Cc1ccccc1C(=O)N1CCN(c2ccc(NC(=O)c3ccco3)cc2Cl)CC1 | inconclusive: 29.1 µM [cytotoxic, single point] | – |
| CC(=O)N1CC(=O)N(c2ccccc2)C1=O | inactive | – |
| CCC(C(=O)Nc1cc(C)ccc1C)n1c(=O)c(C(F)(F)F)nc2ccccc21 (stereo unspecified) | inactive | – |
| COc1cc(C(C)=O)ccc1OCC(=O)Nc1ccc(Cl)c(S(=O)(=O)N2CCOCC2)c1 | inconclusive: 14.6 µM [cytotoxic, partial curve, poor fit] | – |
| CCOC(=O)c1[nH]cnc1C(=O)N1CCN(C(=O)OC(C)(C)C)CC1 | inactive | – |
| CCOc1ccccc1CN(Cc1ccco1)S(=O)(=O)c1ccc(-n2cnnn2)c(OC)c1 | inconclusive: 18.4 µM [cytotoxic, single point] | – |
| O=C(Nc1ccc2ncccc2c1)c1cc(Cl)ccc1Cl | inactive | – |
| COc1ccc(C(=O)/C=C/c2cn(CC(O)CN3CCc4ccccc43)c3ccccc23)cc1OC (stereo unspecified) | inconclusive: 29.1 µM [cytotoxic, single point] | – |
| C=CCC(O)(CC=C)C(C)N (stereo unspecified) | – | inconclusive: 39% |
| COc1ccc(N2CC(C(=O)OCC(=O)c3ccccc3)CC2=O)cc1 (stereo unspecified) | inactive | – |
| COc1ccccc1S(=O)(=O)NCc1ccc(C(=O)NC2CCC(O)CC2)cc1 (stereo unspecified) | inactive | – |
| CN(c1ccccc1)S(=O)(=O)c1ccc(Cl)c(C(=O)Nc2ccncc2)c1 | inconclusive: 1.16 µM [cytotoxic, full curve] | – |
| CCOC(=O)[C@]12CCCC=C1N(Cc1ccc(Cl)cc1Cl)C(=O)[C@H](CC(=O)N1CCC(c3ccccc3)CC1)C2 | inconclusive: 18.4 µM [cytotoxic, partial curve] | – |
| O=C(Cc1csc(Nc2nc(=S)[nH]c3ccccc23)n1)NCc1ccc(Cl)cc1 | inactive | – |
| Cc1cccc2cc(/C=N/NC(=O)CN3CCOCC3)c(Cl)nc12 | active: 18.4 µM | – |
| CCOC(=O)c1cnc2c(CC)cccc2c1NCCCN1CCOCC1 | inactive | – |
| CC(=O)c1c(C)n(CCc2ccc(Cl)cc2)c2ccc(O)cc12 | inconclusive: 29.1 µM [rising, single point] | – |
| CCOC(=O)c1c(C)[nH]c(C)c1C(=O)COC(=O)CCc1ccccc1 | inconclusive: 16.4 µM [rising, partial curve] | – |
| COc1ccc2c(n1)Sc1nc3ccccc3nc1N2 | inactive | – |
| CCCCn1c(SCC(=O)N2c3ccccc3CCc3ccccc32)nc2c1c(=O)n(C)c(=O)n2C | inconclusive: 9.2 µM [cytotoxic, partial curve] | – |

| Compound | Potency | activity change, negative = cytotoxicity |
| --- | --- | --- |
| Cc1ccccc1OCC(=O)Nc1ccc2oc(=O)ccc2c1 | inconclusive: 8.2 µM [cytotoxic, partial curve, poor fit] | – |
| O=C(OCc1ccccc1)N(CCCCN(CCCNCc1ccccc1)C(=O)OCc1ccccc1)CCCNCc1ccccc1 | inconclusive: 8.2 µM [cytotoxic, partial curve, poor fit] | – |
| Nc1c(N(CCC2=CCCCC2)C(=O)CCCOc2ccccc2)c(=O)[nH]c(=O)n1Cc1ccccc1 | inactive | – |
| C=C1C(=O)O[C@@H]2[C@H]1[C@@H](OC(=O)/C(C)=C/C)C/C(C)=C\C(=O)/C=C(\C)[C@@H]2O | inconclusive: 13 µM [cytotoxic, partial curve, poor fit] | – |
| C/C(=N\NC(=S)NC(C)C)c1cccc([N+](=O)[O-])c1 | inconclusive: 29.1 µM [cytotoxic, single point] | – |
| NC(=O)NC(=O)CC1S/C(=N/N=C2\CSC(=O)N2)NC1=O (stereo unspecified) | inconclusive: 0.0046 µM [rising, full curve, poor fit] | – |
| O=c1c(-c2ccc(Cl)cc2)[n+]([O-])c2ccccc2n1OCc1ccccn1 | inconclusive: 2.31 µM [cytotoxic, full curve] | – |
| CCOC(=O)C1=C(C(F)(F)F)Nc2ncnn2C1c1ccc(OC)c(OC)c1OC (stereo unspecified) | inactive | – |
| COc1ccc(-c2cc(C(=O)NCc3cn(C)nc3C)c3ccccc3n2)cc1OC | inconclusive: 18.4 µM [cytotoxic, partial curve] | – |
| Cc1ccc2nc(SCC3CCCCO3)[nH]c2c1 (stereo unspecified) | inactive | – |
| COc1ccc(NS(=O)(=O)c2ccc(-c3coc(C)n3)cc2)cc1 | inconclusive: 29.1 µM [cytotoxic, single point] | – |
| O=C(Nc1ccc(N2CCCCC2)cc1)c1ccccn1 | inconclusive: 29.1 µM [cytotoxic, single point] | – |
| COc1ccc(C2=CC(c3cc(Br)ccc3F)n3c(nc4ccccc43)N2)cc1 (stereo unspecified) | inconclusive: 20.6 µM [cytotoxic, single point] | – |
| C(=N\NC1=Nc2cccc3cccc1c23)/c1ccccn1 | inconclusive: 18.4 µM [cytotoxic, single point] | – |
| Cc1cc(C(=O)COC(=O)/C=C/c2ccco2)c(C)n1C | inactive | – |
| CSc1ncnc2c1ncn2CCCNC1CCN(Cc2ccccc2)CC1 | inconclusive: 29.1 µM [cytotoxic, single point] | – |
| CCOC(=O)c1c(-c2ccccc2)csc1NC(=O)CSc1nncs1 | inconclusive: 20.6 µM [cytotoxic, single point] | – |
| COc1ccc(S(=O)(=O)NN=C2CCCC2)cc1 | inactive | – |
| CCOC(=O)c1c(NC(=O)C2=C(C)NC(=S)NC2c2ccc(C)cc2)sc(C)c1C (stereo unspecified) | active: 20.6 µM | – |
| Cc1ccccc1-c1cc(-c2ccccc2O)on1 | inactive | – |
| O=C(COC(=O)CCc1ccccc1)Nc1cc([N+](=O)[O-])ccc1F | inconclusive: 0.0164 µM [rising, full curve] | – |
| O=C(COc1ccccc1Cl)Nc1ccc(-c2nc3ccccc3s2)cc1 | inconclusive: 29.1 µM [cytotoxic, single point] | – |
| Cc1ccc(C(=O)N/C(=C\c2cccc([N+](=O)[O-])c2)C(=O)OCN2C(=O)c3ccccc3C2=O)cc1 | inconclusive: 25.9 µM [cytotoxic, single point] | – |
| O=C(Nc1cccc(S(=O)(=O)N2CCCC2)c1)c1ccc2c(c1)OCO2 | inconclusive: 20.6 µM [cytotoxic, single point] | – |

Arranged by length of the SMILES (high to low): part of the list above.

| Compound | Potency | activity change, negative = cytotoxicity |
| --- | --- | --- |
| CCOC(=O)c1c(NC(=O)C2=C(C)NC(=S)NC2c2ccc(C)cc2)sc(C)c1C (stereo unspecified) | active: 20.6 µM | – |
| CCOC(=O)C1=C(C(F)(F)F)Nc2ncnn2C1c1ccc(OC)c(OC)c1OC (stereo unspecified) | inactive | – |
| C(=N\NC1=Nc2cccc3cccc1c23)/c1ccccn1 | inconclusive: 18.4 µM [cytotoxic, single point] | – |

The list goes on.

| Compound | Potency | activity change, negative = cytotoxicity |
| --- | --- | --- |
| O=c1[nH]c(N2CCCCC2)nc2c1CCCC2 | inconclusive: 29.1 µM [rising, single point] | – |
| CC(=O)NCC1(c2ccccc2)CCN(CC2COc3ccccc3O2)CC1 (stereo unspecified) | inconclusive: 16.4 µM [cytotoxic, partial curve] | – |
| Cc1nc(N2CCN(c3ccccc3)CC2)nc2c1C(=O)CC(c1ccccc1)C2 (stereo unspecified) | inconclusive: 29.1 µM [cytotoxic, single point] | – |
| Cc1cccc(C)c1NC(=O)CN1C(=O)COc2ccccc21 | inactive | – |
| COc1ccc(CCNC(=O)C(=O)NCC(c2ccco2)S(=O)(=O)c2ccc(C)cc2)cc1 (stereo unspecified) | inactive | – |
| Cc1nc(-c2cccc(S(=O)(=O)N3CC(C)CC(C)C3)c2)cs1 (stereo unspecified) | inconclusive: 23.1 µM [cytotoxic, partial curve] | – |
| CCOc1ccc(NC(=O)Nc2cc(C)ccc2OC)cc1 | active: 14.6 µM | – |
| COc1ccc(NS(=O)(=O)c2ccc3nc(COc4cccc5ccccc45)[nH]c3c2)cc1 | inconclusive: 25.9 µM [cytotoxic, single point] | – |
| C/C(=N/NC(=O)c1cc(C)[nH]n1)c1ccncc1 | inconclusive: 29.1 µM [rising, single point] | – |
| Cc1cccc(CS(=O)(=O)c2ncc(Cl)c(C(=O)Nc3nnc(C(C)C)s3)n2)c1 | active: 16.4 µM | – |
| CCc1cc(SC#N)cc(CC)c1NC(=O)CCl | inconclusive: 20.6 µM [cytotoxic, single point] | – |
| CN1CCN(c2ccc(Nc3ccnc4cc(Cl)ccc34)cc2)CC1 | inconclusive: 29.1 µM [cytotoxic, single point] | – |
| CCOC(=O)c1sc(NC(=O)CN2C(=O)NC3(CC(C)CC(C)(C)C3)C2=O)cc1C (stereo unspecified) | inconclusive: 29.1 µM [cytotoxic, single point] | – |
| COC1CCCN(C(=O)c2ccc3nc(Cc4cccc(Cl)c4)oc3c2)C1 (stereo unspecified) | inactive | – |
| COc1cccc(/C=C/C(=O)OCC(=O)Nc2nnc(-c3ccccc3)o2)c1 | inactive | – |
| CN(C)c1ccc(P(=O)(Nc2cccc(C(F)(F)F)c2)N2CCOCC2)c(NC(=O)c2cccs2)c1 (stereo unspecified) | inconclusive: 16.4 µM [cytotoxic, partial curve, poor fit] | – |
| Cc1ccc(CNC(=O)C2CCCN2C(=O)Nc2ccc(C)cc2)cc1 (stereo unspecified) | inactive | – |
| O=C(c1ccccn1)N1CCN(c2ccc(C(F)(F)F)cn2)CC1 | active: 16.4 µM | – |
| COC(=O)c1ccc(C2Nc3c(C)cccc3-c3cc(C)nn32)cc1 (stereo unspecified) | inconclusive: 29.1 µM [cytotoxic, single point] | – |
| Cc1[nH]c2ccccc2c1C(=O)CSc1nccc(=O)[nH]1 | inconclusive: 16.4 µM [rising, single point] | – |
| COc1ccccc1CNC(=O)N1CCN(S(=O)(=O)c2ccc(C)cc2)CC1 | inconclusive: 10.3 µM [cytotoxic, partial curve, poor fit] | – |
| CC(c1nnc(SCC(=O)c2c(N)n(C3CC3)c(=O)[nH]c2=O)n1-c1ccc(F)cc1)N(C)C (stereo unspecified) | inactive | – |
| COc1cc(C(O)c2nc(-c3cccc(F)c3)cs2)ccc1F (stereo unspecified) | inconclusive: 20.6 µM [cytotoxic, single point] | – |
